Test results: the supplement of paper PMC6143611
Structures can show the parent of a compound that is named as a salt. ± gives the uncertainty stated by the source. This is one part of the list. Baselines shift from plate to plate; read single values as rough.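 At 6 dpf, larvae had a heat-shock-induced fluorescent stripe placed in rod outer segments; shedding distance, from stripe to outer segment tip, was measured in confocal stacks, roughly three fish per compound. Controls received 0.2% DMSO vehicle; compounds were flagged for ≥20% change versus same-week control and p < 0.001 (Dunnett test, mixed-effects models).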

What was measured:
[1] = tested on: Danio rerio larva rod photoreceptor outer segment; test: rod outer segment growth distance Dg, difference from same-week DMSO control mean; higher = more outer segment growth; settings: 20 µM; treatment time: 4 days (6-10 dpf)
[2] = tested on: Danio rerio larva rod photoreceptor outer segment; test: rod outer segment shedding distance Ds, difference from same-week DMSO control mean; higher = less outer segment shedding; settings: 20 µM; treatment time: 4 days (6-10 dpf)

Row | SMILES | rod outer segment growth distance Dg [1] | rod outer segment shedding distance Ds [2]
1 | CC1Cc2ccccc2N1NC(=O)c1ccc(Cl)c(S(N)(=O)=O)c1 (stereo not given) [Indapamide] | 0.79 ± 0.29 um | -0.2 ± 0.21 um
2 | CC(NC(=O)c1ccccc1/N=C/c1c(O)ccc2ccccc12)c1ccccc1 (stereo not given) [Sirtinol] | 0.11 ± 0.17 um | -0.18 ± 0.13 um
3 | COc1cc2nc(N3CCN(C(=O)c4ccco4)CC3)nc(N)c2cc1OC [Prazosin HCl] | -0.67 ± 0.16 um | -0.13 ± 0.19 um
4 | CCc1nc(N)nc(N)c1-c1ccc(Cl)cc1 [Pyrimethamine] | -0.74 ± 0.27 um | -1.28 ± 0.31 um
5 | O=c1c(O)c(-c2ccc(O)c(O)c2)oc2cc(O)cc(O)c12 [Quercetin Dihydrate] | -3.07 ± 1.5 um | -3.75 ± 1.5 um
6 | O=C(c1cc(Cc2n[nH]c(=O)c3ccccc23)ccc1F)N1CCN(C(=O)C2CC2)CC1 | -0.89 ± 0.14 um | -0.57 ± 0.24 um
7 | CC[C@H](/C=C/[C@@H](C)[C@H]1CC[C@H]2[C@@H]3CC=C4C[C@@H](O)CC[C@]4(C)[C@H]3CC[C@]12C)C(C)C [Stigmasterol] | 0.38 ± 0.22 um | -0.14 ± 0.3 um
8 | C=CC[N+]1([C@H]2C[C@H]3[C@@H]4CC[C@H]5C[C@H](O)[C@@H](N6CCOCC6)C[C@]5(C)[C@H]4CC[C@]3(C)[C@H]2OC(C)=O)CCCC1 [Rocuronium Bromide] | -0.87 ± 0.19 um | -0.06 ± 0.24 um
9 | C[C@]12CCC(=O)C=C1[C@@H]1C[C@@H]1[C@H]1[C@@H]3[C@@H]4C[C@@H]4[C@@]4(CCC(=O)O4)[C@@]3(C)CC[C@@H]12 [Drospirenone] | -2.96 ± 0.37 um | 0.02 ± 0.29 um
10 | O=C(O)c1cccc(-c2noc(-c3ccccc3F)n2)c1 [Ataluren (PTC124)] | 0.3 ± 0.16 um | 0.18 ± 0.13 um
11 | Cc1ncc([N+](=O)[O-])n1CCO [Metronidazole] | 0.41 ± 0.2 um | 0.88 ± 0.26 um
12 | CO[C@H]1C[C@@H]2CC[C@@H](C)[C@@](O)(O2)C(=O)C(=O)N2CCCC[C@H]2C(=O)O[C@H]([C@H](C)C[C@@H]2CC[C@@H](O)[C@H](OC)C2)CC(=O)[C@H](C)/C=C(\C)[C@@H](O)[C@@H](OC)C(=O)[C@H](C)C[C@H](C)/C=C/C=C/C=C/1C [Rapamycin (Sirolimus)] | -1.23 ± 0.18 um | -1.13 ± 0.22 um
13 | Cc1cn([C@H]2C[C@H](N=[N+]=[N-])[C@@H](CO)O2)c(=O)[nH]c1=O [Zidovudine] | 0.62 ± 0.28 um | -0.73 ± 0.16 um
14 | CCN(CC)CCOC(=O)C(c1ccccc1)c1ccccc1 [Adiphenine HCl] | 0.89 ± 0.26 um | -1.01 ± 0.29 um
15 | CS(=O)(=O)c1ccc(C(=O)Nc2ccc(Cl)c(-c3ccccn3)c2)c(Cl)c1 [Vismodegib (GDC-0449)] | -0.89 ± 0.15 um | -0.72 ± 0.2 um
16 | Cn1cnc2c(F)c(Nc3ccc(Br)cc3F)c(C(=O)NOCCO)cc21 | -0.36 ± 0.13 um | 0.38 ± 0.13 um
17 | CC(C)(CO)[C@@H](O)C(=O)NCCC(=O)O [D-Pantothenic acid] | 0.87 ± 0.24 um | 0.37 ± 0.28 um
18 | O=c1[nH]cnc2c1ncn2[C@@H]1O[C@H](CO)[C@@H](O)[C@H]1O [Inosine] | -0.52 ± 0.31 um | -0.24 ± 0.32 um
19 | CC1(COc2ccc3c(c2)ncn3-c2ccc3cccc(N4CCC(N)CC4)c3n2)COC1 | -1.58 ± 0.15 um | -0.67 ± 0.11 um
20 | C[C@]12C=CC(=O)C=C1CC[C@@H]1[C@@H]2[C@@H](O)C[C@@]2(C)[C@H]1CC[C@]2(O)C(=O)CO [Prednisolone] | -0.92 ± 0.24 um | -0.04 ± 0.2 um
21 | COc1ccccc1N1CCN(CCCNc2cc(=O)n(C)c(=O)n2C)CC1 [Urapidil HCl] | -0.99 ± 0.24 um | -0.58 ± 0.26 um
22 | COCCCOc1cc(C[C@@H](C[C@H](N)[C@@H](O)C[C@H](C(=O)NCC(C)(C)C(N)=O)C(C)C)C(C)C)ccc1OC [Aliskiren Hemifumarate] | 0.04 ± 0.3 um | -0.14 ± 0.23 um
23 | CC(=O)c1c(C)c2cnc(Nc3ccc(N4CCNCC4)cn3)nc2n(C2CCCC2)c1=O | -1.82 ± 0.21 um | -0.54 ± 0.26 um
24 | C[C@H](Cc1cc2c(c(C(N)=O)c1)N(CCCO)CC2)NCCOc1ccccc1OCC(F)(F)F [Silodosin] | 0.58 ± 0.17 um | -0.09 ± 0.15 um
25 | N#CC(=C(/N)Sc1ccccc1N)/C(C#N)=C(\N)Sc1ccccc1N | -1.79 ± 0.25 um | 0.12 ± 0.27 um

Row | SMILES | rod outer segment growth distance Dg [1] | rod outer segment shedding distance Ds [2]
26 | COC(=O)N[C@H](C(=O)N[C@@H](Cc1ccccc1)[C@@H](O)CN(Cc1ccc(-c2ccccn2)cc1)NC(=O)[C@@H](NC(=O)OC)C(C)(C)C)C(C)(C)C [Atazanavir Sulfate] | 0.08 ± 0.18 um | -0.53 ± 0.18 um
27 | CC(=O)O[C@@]12CO[C@@H]1C[C@H](O)[C@@]1(C)C(=O)[C@H](O)C3=C(C)[C@@H](OC(=O)[C@H](O)[C@@H](NC(=O)OC(C)(C)C)c4ccccc4)C[C@@](O)([C@@H](OC(=O)c4ccccc4)[C@H]21)C3(C)C [Docetaxel] | -0.61 ± 0.28 um | -0.94 ± 0.26 um
28 | COc1cc2c(cc1-c1c(C)noc1C)ncc1[nH]c(=O)n([C@H](C)c3ccccn3)c12 | -0.45 ± 0.15 um | 0.66 ± 0.12 um
29 | COc1ccc(CC2c3cc(OC)c(OC)cc3CC[N+]2(C)CCC(=O)OCCCCCOC(=O)CC[N+]2(C)CCc3cc(OC)c(OC)cc3C2Cc2ccc(OC)c(OC)c2)cc1OC (stereo not given) [Atracurium Besylate] | -0.86 ± 0.19 um | -0.66 ± 0.29 um
30 | COC(=O)[C@H](Cc1ccccc1)NC(=O)[C@@H](N)CC(=O)O [Aspartame] | 1.25 ± 0.31 um | -0.19 ± 0.3 um
31 | Oc1cc(O)cc(/C=C/c2ccc(O)c(O)c2)c1 [Piceatannol] | -0.2 ± 0.17 um | 0.02 ± 0.17 um
32 | CCCc1nc2c(C)cc(-c3nc4ccccc4n3C)cc2n1Cc1ccc(-c2ccccc2C(=O)O)cc1 [Telmisartan] | -0.45 ± 0.23 um | -0.01 ± 0.18 um
33 | O=c1ncccn1[C@@H]1O[C@H](CO)[C@@H](O)[C@H]1O [Zebularine] | -0.33 ± 0.21 um | 0.3 ± 0.29 um
34 | C[C@@H]1O[C@@H](OC[C@H]2O[C@@H](Oc3c(-c4ccc(O)c(O)c4)oc4cc(O)cc(O)c4c3=O)[C@H](O)[C@@H](O)[C@@H]2O)[C@H](O)[C@H](O)[C@H]1O [Rutin] | -0.03 ± 0.23 um | 0.58 ± 0.26 um
35 | NC(=O)c1cccnc1 [Nicotinamide (Vitamin B3)] | 1.18 ± 0.23 um | 0.61 ± 0.27 um
36 | Oc1ccc(/C=C/c2cc(O)cc(O)c2)cc1 [Resveratrol] | -0.98 ± 0.22 um | -0.29 ± 0.31 um
37 | CCOC(=O)Nc1ccc(NCc2ccc(F)cc2)nc1N [Flupirtine maleate] | -0.04 ± 0.31 um | 0.08 ± 0.21 um
38 | CC(C)NCC(O)c1ccc(O)c(O)c1 (stereo not given) [Isoprenaline HCl] | 0.23 ± 0.27 um | -0.6 ± 0.14 um
39 | Cc1ccc(Nc2nccc(N(C)c3ccc4c(C)n(C)nc4c3)n2)cc1S(N)(=O)=O | 0.43 ± 0.22 um | -0.76 ± 0.27 um
40 | Nc1nc(N)c(N=O)c(OCC2CCCCC2)n1 | -0.84 ± 0.2 um | 0.69 ± 0.29 um
41 | CN(C)CCc1c[nH]c2ccc(C[C@H]3COC(=O)N3)cc12 [Zolmitriptan] | -0.3 ± 0.25 um | 0.13 ± 0.18 um
42 | CN(N=O)C(=O)NC1C(O)OC(CO)C(O)C1O (stereo not given) [Streptozotocin (STZ)] | 0.53 ± 0.15 um | -0.44 ± 0.14 um
43 | NS(=O)(=O)c1cc2c(cc1Cl)NCNS2(=O)=O [Hydrochlorothiazide] | 0.02 ± 0.27 um | -0.34 ± 0.14 um
44 | O=C1NCCc2[nH]c(-c3ccncc3)cc21 | -0.97 ± 0.16 um | -0.35 ± 0.11 um
45 | O=C1N=C(O)NC1(c1ccccc1)c1ccccc1 [Phenytoin sodium] | 0.16 ± 0.2 um | 0.1 ± 0.33 um
46 | CC[C@H](C)C(=O)O[C@H]1C[C@H](O)C=C2C=C[C@H](C)[C@H](CC[C@@H](O)C[C@@H](O)CC(=O)O)[C@H]21 [Pravastatin sodium] | -0.06 ± 0.15 um | 0.03 ± 0.15 um
47 | CNC(=O)c1ccccc1Sc1ccc2c(/C=C/c3ccccn3)n[nH]c2c1 [Axitinib] | -1.2 ± 0.25 um | -1.74 ± 0.27 um
48 | O=c1ccc2ccc(O)c(O)c2o1 [Daphnetin] | -1.2 ± 0.25 um | -0.52 ± 0.18 um
49 | CO[C@H]1C[C@@H]2CC[C@@H](C)[C@@](O)(O2)C(=O)C(=O)N2CCCC[C@H]2C(=O)O[C@H]([C@H](C)C[C@@H]2CC[C@@H](OC(=O)C(C)(CO)CO)[C@H](OC)C2)CC(=O)[C@H](C)/C=C(\C)[C@@H](O)[C@@H](OC)C(=O)[C@H](C)C[C@H](C)/C=C/C=C/C=C/1C | -0.82 ± 0.09 um | -1.39 ± 0.2 um
50 | CO/N=C(\C(=O)N[C@@H]1C(=O)N2C(C(=O)O)=C(Cn3ccc(=N)n3CCO)CS[C@H]12)c1csc(N)n1 [Cefoselis Sulfate] | -0.67 ± 0.25 um | -0.54 ± 0.25 um

Look-ups from the results shown:
rod outer segment growth distance Dg [1], CN(C)CCc1c[nH]c2ccc(C[C@H]3COC(=O)N3)cc12 [Zolmitriptan] is entered as -0.3 ± 0.25 um
rod outer segment shedding distance Ds [2], COC(=O)N[C@H](C(=O)N[C@@H](Cc1ccccc1)[C@@H](O)CN(Cc1ccc(-c2ccccn2)cc1)NC(=O)[C@@H](NC(=O)OC)C(C)(C)C)C(C)(C)C [Atazanavir Sulfate] is entered as -0.53 ± 0.18 um
rod outer segment growth distance Dg [1], C[C@@H]1O[C@@H](OC[C@H]2O[C@@H](Oc3c(-c4ccc(O)c(O)c4)oc4cc(O)cc(O)c4c3=O)[C@H](O)[C@@H](O)[C@@H]2O)[C@H](O)[C@H](O)[C@H]1O [Rutin] is entered as -0.03 ± 0.23 um
